From paper PMC12012714 come the findings set out here.

For at least one entry, the source does not settle the construct or the ends of the probe.

The data set deals with cGAS. Put plainly: EMSA. The note with it: 4 pmol DNA, 15 ug cGAS, 5' biotin on listed oligos (not stated whether present in the cGAS assay), cGAS EMSA: 4 pmol DNA + 15 ug cGAS, 37 °C 10 min, 3.5% agarose TBE gel, 300 V, cold buffer, EtBr stain, salt and pH not stated, recombinant protein, protein details: His6-SUMO (not removed). For orientation: A gel shift assay detects complexes by their altered migration in electrophoresis.

For the sequence “GGAGACCGTGACCGGTGGTGCAGATGAACTTCAGGGTCACGGTGGTGCAGATGAACTTCAGGGTCA (double strand) [66 bp dsDNA (66.1/66.2)]”, the binding result is recorded as “binds”.
